PubChem BioAssay AID1259405 – NCATS | 2018
Test: 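Silenced genes that increase secreted GFP made by CHO cells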 (primary screen). System: Chinese hamster CHO-K1 ovary cells with stable secreted eGFP expression. Reagents: single siRNA against mouse genes, 0.8 pmol siRNA per well (2 µl of 400 nM stock). Timing: 3 days. Measurement: 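Per-well intracellular GFP measured by laser scanning cytometry, plus viability from ATP luminescence, each relative to plate median of non-targeting control wells, in %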. Scale: GFP, % of control: higher = more GFP per well, higher productivity; viability (ATP), % of control: higher = more viable cells (more ATP). Rule for the call: 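a knock-down is called active if GFP reaches 120% or more of non-targeting control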.
Shown is one part, drawn at random, of about 50,000 deposited reagents. About 4,000 of all reagents (8%) count as active. 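Mouse siRNA library applied to hamster cells; one well for each siRNA.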 The numbers tell different reagents against one gene apart. Reagent sequences are not shown.

target | reagent no. | GFP, % of control | viability (ATP), % of control | Call
Far2 (fatty acyl CoA reductase 2) | 1 | 77.2 | 117 | inactive
Far2 (fatty acyl CoA reductase 2) | 2 | 75.2 | 92.1 | inactive
Far2 (fatty acyl CoA reductase 2) | 3 | 56.8 | 53.1 | inactive
Treml6 (triggering receptor expressed on myeloid cells-like 6) | 1 | 174 | 84.7 | active
Treml6 (triggering receptor expressed on myeloid cells-like 6) | 2 | 66.9 | 75.8 | inactive
Treml6 (triggering receptor expressed on myeloid cells-like 6) | 3 | 44.4 | 37 | inactive
Aplp1 (amyloid beta precursor like protein 1) | 1 | 76.6 | 58.8 | inactive
Aplp1 (amyloid beta precursor like protein 1) | 2 | 79.8 | 95.8 | inactive
Aplp1 (amyloid beta precursor like protein 1) | 3 | 93.5 | 99.3 | inactive
Rassf3 (Ras association (RalGDS/AF-6) domain family member 3) | 1 | 67.9 | 88.7 | inactive
Rassf3 (Ras association (RalGDS/AF-6) domain family member 3) | 2 | 51.2 | 75 | inactive
Rassf3 (Ras association (RalGDS/AF-6) domain family member 3) | 3 | 28.6 | 42.1 | inactive
Eras (ES cell-expressed Ras) | 1 | 123 | 155 | active
Eras (ES cell-expressed Ras) | 2 | 40.4 | 46.3 | inactive
Eras (ES cell-expressed Ras) | 3 | 96.6 | 74.5 | inactive
Gcgr (glucagon receptor) | 1 | 75.1 | 73.5 | inactive
Gcgr (glucagon receptor) | 2 | 56.4 | 43.5 | inactive
Gcgr (glucagon receptor) | 3 | 38.9 | 45.3 | inactive
Cnih3 (cornichon family AMPA receptor auxiliary protein 3) | 1 | 93.7 | 88.5 | inactive
Cnih3 (cornichon family AMPA receptor auxiliary protein 3) | 2 | 68.3 | 52.9 | inactive
Cnih3 (cornichon family AMPA receptor auxiliary protein 3) | 3 | 83.2 | 76 | inactive
Gba1 (glucosylceramidase beta 1) | 1 | 71.9 | 83.3 | inactive
Gba1 (glucosylceramidase beta 1) | 2 | 92.7 | 76.7 | inactive
Gba1 (glucosylceramidase beta 1) | 3 | 86.6 | 55.9 | inactive
Rcor3 (REST corepressor 3) | 1 | 89.2 | 57.9 | inactive
Rcor3 (REST corepressor 3) | 2 | 41.9 | 48.8 | inactive
Rcor3 (REST corepressor 3) | 3 | 69.2 | 74.5 | inactive
Gpr65 (G-protein coupled receptor 65) | 1 | 63.1 | 84.6 | inactive
Gpr65 (G-protein coupled receptor 65) | 2 | 73.9 | 77.2 | inactive
Gpr65 (G-protein coupled receptor 65) | 3 | 73.4 | 66.9 | inactive
Tmem218 (transmembrane protein 218) | 1 | 81.6 | 73.2 | inactive
Tmem218 (transmembrane protein 218) | 2 | 67.6 | 64.1 | inactive
Tmem218 (transmembrane protein 218) | 3 | 51.8 | 78.5 | inactive
Ssh1 (slingshot protein phosphatase 1) | 1 | 76.4 | 82 | inactive
Ssh1 (slingshot protein phosphatase 1) | 2 | 79.3 | 56.6 | inactive
Ssh1 (slingshot protein phosphatase 1) | 3 | 68.8 | 49 | inactive
Plet1 (placenta expressed transcript 1) | 1 | 67.8 | 85 | inactive
Plet1 (placenta expressed transcript 1) | 2 | 86 | 70.6 | inactive
Plet1 (placenta expressed transcript 1) | 3 | 58.3 | 46 | inactive
Rmi1 (RecQ mediated genome instability 1) | 1 | 105 | 74.1 | inactive
Rmi1 (RecQ mediated genome instability 1) | 2 | 114 | 63.1 | inactive
Rmi1 (RecQ mediated genome instability 1) | 3 | 75.2 | 78.8 | inactive
Fam135a (family with sequence similarity 135, member A) | 1 | 65 | 69.6 | inactive
Fam135a (family with sequence similarity 135, member A) | 2 | 118 | 84.3 | inactive
Fam135a (family with sequence similarity 135, member A) | 3 | 84.5 | 97.1 | inactive
Jund (jun D proto-oncogene, AP-1 transcription factor subunit) | 1 | 71 | 98.7 | inactive
Jund (jun D proto-oncogene, AP-1 transcription factor subunit) | 2 | 61.5 | 35.4 | inactive
Jund (jun D proto-oncogene, AP-1 transcription factor subunit) | 3 | 79.6 | 86.2 | inactive
Tagln3 (transgelin 3) | 1 | 56.8 | 82 | inactive
Tagln3 (transgelin 3) | 2 | 46.7 | 88.5 | inactive
Tagln3 (transgelin 3) | 3 | 53.5 | 52.7 | inactive
Xlr5c (X-linked lymphocyte-regulated 5C) | 1 | 86.8 | 50.9 | inactive
Xlr5c (X-linked lymphocyte-regulated 5C) | 2 | 56.9 | 61.4 | inactive
Xlr5c (X-linked lymphocyte-regulated 5C) | 3 | 165 | 109 | active
Ankar (ankyrin and armadillo repeat containing) | 1 | 119 | 118 | inactive
Ankar (ankyrin and armadillo repeat containing) | 2 | 69.3 | 43.7 | inactive
Ankar (ankyrin and armadillo repeat containing) | 3 | 90.9 | 93.6 | inactive
Drd5 (dopamine receptor D5) | 1 | 119 | 113 | inactive
Drd5 (dopamine receptor D5) | 2 | 66.7 | 65 | inactive
Drd5 (dopamine receptor D5) | 3 | 71.2 | 69.2 | inactive
Mia (MIA SH3 domain containing) | 1 | 48.4 | 35 | inactive
Mia (MIA SH3 domain containing) | 2 | 52.8 | 43.5 | inactive
Mia (MIA SH3 domain containing) | 3 | 69.5 | 80.2 | inactive
Fam25a (family with sequence similarity 25, member A) | 1 | 78.1 | 101 | inactive
Fam25a (family with sequence similarity 25, member A) | 2 | 70.9 | 77.1 | inactive
Fam25a (family with sequence similarity 25, member A) | 3 | 61.5 | 88.9 | inactive
Kcnj16 | 1 | 50.4 | 56.1 | inactive
Kcnj16 | 2 | 58.7 | 60.4 | inactive
Kcnj16 | 3 | 122 | 74.4 | active
Dstyk (dual serine/threonine and tyrosine protein kinase) | 1 | 78.1 | 74.5 | inactive
Zfp189 (zinc finger protein 189) | 1 | 65.1 | 90.8 | inactive
Zfp189 (zinc finger protein 189) | 2 | 43.1 | 58.8 | inactive
Zfp189 (zinc finger protein 189) | 3 | 80.4 | 101 | inactive
Sdhb (succinate dehydrogenase complex, subunit B, iron sulfur (Ip)) | 1 | 79.7 | 101 | inactive
Sdhb (succinate dehydrogenase complex, subunit B, iron sulfur (Ip)) | 2 | 31.2 | 47.8 | inactive
Sdhb (succinate dehydrogenase complex, subunit B, iron sulfur (Ip)) | 3 | 85 | 72 | inactive
Ica1 (islet cell autoantigen 1) | 1 | 56.4 | 87.8 | inactive
Ica1 (islet cell autoantigen 1) | 2 | 69.2 | 60.2 | inactive
Ica1 (islet cell autoantigen 1) | 3 | 85.7 | 91.8 | inactive
Ddx52 (DExD box helicase 52) | 1 | 88 | 86.1 | inactive
Ddx52 (DExD box helicase 52) | 2 | 194 | 161 | active
St13 (suppression of tumorigenicity 13) | 1 | 97.2 | 107 | inactive
St13 (suppression of tumorigenicity 13) | 2 | 114 | 107 | inactive
Vkorc1l1 (vitamin K epoxide reductase complex, subunit 1-like 1) | 1 | 49.3 | 30.7 | inactive
Vkorc1l1 (vitamin K epoxide reductase complex, subunit 1-like 1) | 2 | 91.6 | 72.2 | inactive
Vkorc1l1 (vitamin K epoxide reductase complex, subunit 1-like 1) | 3 | 82.3 | 70.8 | inactive

Reprinted from the entries so far, 11 entries:
target | reagent no. | GFP, % of control | viability (ATP), % of control | Call
Dstyk (dual serine/threonine and tyrosine protein kinase) | 1 | 78.1 | 74.5 | inactive
Zfp189 (zinc finger protein 189) | 1 | 65.1 | 90.8 | inactive
Zfp189 (zinc finger protein 189) | 2 | 43.1 | 58.8 | inactive
Zfp189 (zinc finger protein 189) | 3 | 80.4 | 101 | inactive
Sdhb (succinate dehydrogenase complex, subunit B, iron sulfur (Ip)) | 1 | 79.7 | 101 | inactive
Sdhb (succinate dehydrogenase complex, subunit B, iron sulfur (Ip)) | 2 | 31.2 | 47.8 | inactive
Sdhb (succinate dehydrogenase complex, subunit B, iron sulfur (Ip)) | 3 | 85 | 72 | inactive
Ica1 (islet cell autoantigen 1) | 1 | 56.4 | 87.8 | inactive
Ica1 (islet cell autoantigen 1) | 2 | 69.2 | 60.2 | inactive
Ica1 (islet cell autoantigen 1) | 3 | 85.7 | 91.8 | inactive
Ddx52 (DExD box helicase 52) | 1 | 88 | 86.1 | inactive
